The numbers were not newly measured in patent US20130337020A1, “Pharmaceutical Compositions” (Alpharma Pharmaceuticals LLC, priority 2006, published 2013), which cites them from elsewhere.

Each structure is given as a SMILES string.

The conditions of the data set: hydrochloride salt; cited from earlier work.

For `O=C1CC[C@@]2(O)[C@H]3Cc4ccc(O)c5c4[C@@]2(CCN3CC2CC2)[C@H]1O5` [naltrexone], the solubility in water result is “about 100 mg/cc”.
